# According to PubChem BioAssay AID445 (National Center for Advancing Translational Sciences (NCATS), 2006):
# Some of the results follow. These are further read-outs of the screen, such as a control signal, another cell line or another target. No call is given for them. Compounds called inactive in the main read-out are mostly missing here. Potencies come from curve fits of mixed quality, noted in brackets.
# Assay: IkB Signaling
# Conditions: ABC-DLBCL IkBa-CBG/CBR dual luciferase ratio (green luciferase fused to IkBa over red control in OCI-Ly3 lymphoma cells), 4 h
# Summary of the method: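 In this assay, an IκBα–CBG68 fusion accumulates when IKK-driven degradation is blocked; native CBR normalizes for cell number. OCI-Ly3 cells were treated 4 h with compound and doxycycline, then green and red light read after Chroma-Glo addition.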
# [1] = measured here: control luc red channel unless noted
smiles,measurement,setting,value
N#Cc1cc(Cl)c(N2CCOCC2)cc1C#N,AC50,[1],"12.6 µM [rising, partial curve]"
COc1cccc(NC(=O)Cn2cc(C(=O)c3ccc(C)cc3)c(=O)c3cc(OC)ccc32)c1,AC50,[1],"15.8 µM [falling, partial curve]"
CCOC(=O)c1c(Nc2ccc(OC)cc2)nnc(-c2ccccc2)c1-c1ccccc1,AC50,[1],"15.8 µM [falling, partial curve]"
CCOc1ccc(NC(=O)COc2ccc(S(=O)(=O)NC3CCCCC3)cc2)cc1,AC50,[1],"7.94 µM [falling, partial curve]"
COc1ccc(-c2csc(=Nc3ccccc3)n2CCO)cc1F,AC50,[1],"39.8 µM [falling, single point]"
Cc1cccn2c(=O)c(C(=O)NCc3cccc(F)c3)cnc12,AC50,[1],"12.6 µM [rising, partial curve]"
CCOc1ccc(CNC(=O)Cc2ccc(NC(=O)N3CCSc4ncccc43)cc2)cc1,AC50,[1],"20 µM [falling, single point]"
Cc1ccc(Cl)cc1Nc1nn2c(=O)c3ccc(C(=O)NCc4ccc(F)cc4)cc3nc2s1,AC50,[1],"25.1 µM [falling, single point]"
COc1ccc(Nc2c(-c3cccc(O)c3)nc3cnccn23)cc1,AC50,[1],"0.01 µM [falling, full curve]"
CCOC(=O)N1CCc2c(sc3c2c(=O)n(-c2ccc(Cl)cc2)c(=O)n3CC(C)C)C1,AC50,[1],"31.6 µM [falling, single point]"
O=c1cc(-c2ccc(F)cc2)nc(SCc2nc(-c3ccc(Cl)cc3)no2)[nH]1,AC50,[1],"20 µM [rising, partial curve]"
C/C(=C\c1ccco1)C1Nc2cccc3cccc(c23)N1,AC50,[1],"3.98 µM [rising, partial curve] [measured here: IkB-luc green channel]"
Cc1ccc(Cn2ccc(NC(=O)c3c(-c4ccccc4Cl)noc3C)n2)cc1,AC50,[1],"25.1 µM [falling, partial curve]"
COc1cc(C(=O)NCC(c2ccc(Cl)cc2)N2CCOCC2)cc(OC)c1OC (stereo unspecified),AC50,[1],"15.8 µM [falling, partial curve]"
COc1ccc(NC(=O)Nc2ccc(C)cc2OC(F)F)cc1OC,AC50,[1],"12.6 µM [falling, partial curve]"
O=C(Cn1c(=O)nc(-c2ccccc2)c2ccccc21)NCc1ccccc1Cl,AC50,[1],"31.6 µM [falling, single point]"
COc1cc(NC(=O)CCn2nc(C)c(S(=O)(=O)N3CCCCC3)c2C)cc(OC)c1OC,AC50,[1],"39.8 µM [falling, single point]"
CCCC(=O)N1CCN(c2ccc(NC(=O)c3cc4ccccc4o3)cc2Cl)CC1,AC50,[1],"3.16 µM [falling, full curve]"
c1ccc2c(c1)CCN(c1nc3cc4c(cc3s1)OCCO4)C2,AC50,[1],"12.6 µM [falling, partial curve]"
COc1ccc(Cl)cc1NC(=O)c1c(NCc2cccnc2)sc2c1CCC(C)C2 (stereo unspecified),AC50,[1],"10 µM [falling, partial curve]"
Cc1ccc(Cl)cc1NC(=O)CCCn1c(=O)c2cccn2c2cccnc21,AC50,[1],"31.6 µM [falling, single point]"
COc1ccccc1NC(=O)C1=C(C)Nc2c(C(=O)Nc3cccc(C)c3)cnn2C1c1ccccc1Cl (stereo unspecified),AC50,[1],"10 µM [falling, partial curve]"
CCN1CCN(C(c2ccc(SC)cc2)c2c(O)cc(C)n(CCOC)c2=O)CC1 (stereo unspecified),AC50,[1],"12.6 µM [falling, partial curve]"
COc1ccc(CNC(=O)CS(=O)Cc2nc(-c3cccc(C)c3)oc2C)cc1 (stereo unspecified),AC50,[1],"31.6 µM [falling, single point]"
COc1cc(CNCCSc2nnnn2C)cc(Cl)c1OCc1ccccc1,AC50,[1],"15.8 µM [falling, single point]"
COc1cccc(NC(=O)Nc2nnc(N3CCCCC3C)s2)c1 (stereo unspecified),AC50,[1],"12.6 µM [falling, partial curve]"
CCCCN(CC)CCNC(=O)c1cc2c(=O)n(CC)c3ccccc3c2s1,AC50,[1],"5.01 µM [falling, partial curve]"
CC(C)(Oc1ccc(Br)cc1)C(=O)Nc1cc(-c2nc3ccccc3[nH]2)ccc1Cl,AC50,[1],"12.6 µM [falling, partial curve]"
O=C(CN1N=C(c2ccc(Cl)cc2)CCC1=O)NCCc1ccccc1,AC50,[1],"12.6 µM [falling, partial curve, poor fit]"
CCc1c(C)nc2nncn2c1NCc1ccc(Cl)cc1,AC50,[1],"12.6 µM [falling, partial curve]"
CCOc1ccc(NC(=O)c2oc3ccccc3c2NC(=O)c2ccc(OC)cc2OC)cc1,AC50,[1],"39.8 µM [falling, single point]"
CCCn1c(NC(=O)c2cccc(S(=O)(=O)N3CCCC3)c2)nc2ccccc21,AC50,[1],"3.16 µM [falling, full curve]"
O=C(c1cccs1)N(Cc1nc2sc3c(c2c(=O)[nH]1)CCCC3)C1CCCC1,AC50,[1],"25.1 µM [falling, partial curve]"
COc1ccccc1N1C(=O)N(CC(=O)C(C)(C)C)c2ccccc2S1(=O)=O,AC50,[1],"2.51 µM [rising, partial curve]"
O=C(NCc1cccnc1)C1CCCN(S(=O)(=O)c2ccc(Br)cc2)C1 (stereo unspecified),AC50,[1],"20 µM [falling, partial curve]"
CCCCn1c(CN2CCOCC2)nc2c1c(=O)n(C)c(=O)n2C,AC50,measured here: IkB-luc green channel,"12.6 µM [rising, partial curve]"
same,AC50,measured here: control luc red channel,"2.51 µM [falling, full curve]"
O=C1CN(C(=O)COc2ccc(Cl)cc2Cl)C(c2ccccc2)c2cc(F)ccc2N1 (stereo unspecified),AC50,[1],"10 µM [falling, partial curve]"
CCC(=O)Nc1cccc(NC(=O)CSc2nnnn2Cc2ccccc2)c1,AC50,[1],"25.1 µM [falling, partial curve]"
CCOc1ccc(CCNC(=O)c2nn(C)c3c2CSc2ccccc2-3)cc1,AC50,[1],"25.1 µM [falling, single point]"
Cc1cccc(C(=O)NNc2ncnc3c2cnn3-c2ccc(C)cc2C)c1,AC50,[1],"15.8 µM [falling, single point]"

# Laid out differently: results already given.
smiles	measurement	setting	value
COc1cc(NC(=O)CCn2nc(C)c(S(=O)(=O)N3CCCCC3)c2C)cc(OC)c1OC	AC50	[1]	39.8 µM [falling, single point]
CCCC(=O)N1CCN(c2ccc(NC(=O)c3cc4ccccc4o3)cc2Cl)CC1	AC50	[1]	3.16 µM [falling, full curve]
c1ccc2c(c1)CCN(c1nc3cc4c(cc3s1)OCCO4)C2	AC50	[1]	12.6 µM [falling, partial curve]
COc1ccc(Cl)cc1NC(=O)c1c(NCc2cccnc2)sc2c1CCC(C)C2 (stereo unspecified)	AC50	[1]	10 µM [falling, partial curve]
Cc1ccc(Cl)cc1NC(=O)CCCn1c(=O)c2cccn2c2cccnc21	AC50	[1]	31.6 µM [falling, single point]
COc1ccccc1NC(=O)C1=C(C)Nc2c(C(=O)Nc3cccc(C)c3)cnn2C1c1ccccc1Cl (stereo unspecified)	AC50	[1]	10 µM [falling, partial curve]
CCN1CCN(C(c2ccc(SC)cc2)c2c(O)cc(C)n(CCOC)c2=O)CC1 (stereo unspecified)	AC50	[1]	12.6 µM [falling, partial curve]
COc1ccc(CNC(=O)CS(=O)Cc2nc(-c3cccc(C)c3)oc2C)cc1 (stereo unspecified)	AC50	[1]	31.6 µM [falling, single point]
